Source: PMC2442905 (British Journal of Pharmacology, 2008)

Test system: anaesthetized guinea-pigs (QTc interval of the ECG)
Assay: Anaesthetized guinea-pig QT
Assay type: in vivo
Conditions: highest dose level, i.v. infusion over 10 min

## CCCCc1oc2ccccc2c1C(=O)c1cc(I)c(OCCN(CC)CC)c(I)c1 [Amiodarone]
  mean baseline-corrected QTc: 6.9%
